In PMC4930613:
Results are given in words; binding and its absence hold for the method and conditions named. Binding seen in cells or lysates may run through a third protein. Some results given as binding are weak or reduced against the parent protein; the word gives no strength.

Experiments:
[1] = biological target: T1, endogenous SNPH (mouse brain) (mouse (endogenous in mouse brain)) (UniProt Q80U23); experiment: co-IP; endogenous proteins, mitochondrial fraction of mouse brain tissue; anti-SNPH immunoprecipitates blotted with anti-SNPH and anti-DISC1; rabbit IgG as negative control
T1 sequence: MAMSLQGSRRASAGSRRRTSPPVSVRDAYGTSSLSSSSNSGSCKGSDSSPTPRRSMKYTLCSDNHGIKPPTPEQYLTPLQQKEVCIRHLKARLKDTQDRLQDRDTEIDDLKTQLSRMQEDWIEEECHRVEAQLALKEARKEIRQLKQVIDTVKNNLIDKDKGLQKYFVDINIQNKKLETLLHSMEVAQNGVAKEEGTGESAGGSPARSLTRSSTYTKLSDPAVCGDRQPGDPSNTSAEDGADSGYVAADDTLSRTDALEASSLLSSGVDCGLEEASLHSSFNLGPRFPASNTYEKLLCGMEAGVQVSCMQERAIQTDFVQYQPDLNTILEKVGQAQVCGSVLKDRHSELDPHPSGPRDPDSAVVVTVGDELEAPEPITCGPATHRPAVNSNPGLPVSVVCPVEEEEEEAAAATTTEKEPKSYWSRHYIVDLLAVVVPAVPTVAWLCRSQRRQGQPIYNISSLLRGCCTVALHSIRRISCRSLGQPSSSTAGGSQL

[2] = biological target: T1, endogenous SNPH (mouse brain) (mouse (endogenous in mouse brain)); experiment: co-IP; endogenous proteins, whole lysates of mouse brain tissue; anti-SNPH immunoprecipitates blotted with anti-SNPH and anti-DISC1

- binding [1]: binds
- binding [2]: binds
B1: endogenous DISC1 (mouse brain) (protein, UniProt Q811T9 1-852)
chain: MQGGGPRGAPIHSPSHGADSGHGLPPAVAPQRRRLTRRPGYMRSTAGSGIGFLSPAVGMPHPSSAGLTGQQSQHSQSKAGQCGLDPGSHCQASLVGKPFLKSSLVPAVASEGHLHPAQRSMRKRPVHFAVHSKNDSRQSERLTGSFKPGDSGFWQELLSSDSFKSLAPSLDAPWNKGSRGLKTVKPLASPALNGPADIASLPGFQDTFTSSFSFIQLSLGAAGERGEAEGCLPSREAEPLHQRPQEMAAEASSSDRPHGDPRHLWTFSLHAAPGLADLAQVTRSSSRQSECGTVSSSSSDTGFSSQDASSAGGRGDQGGGWADAHGWHTLLREWEPMLQDYLLSNRRQLEVTSLILKLQKCQEKVVEDGDYDTAETLRQRLEELEQEKGRLSWALPSQQPALRSFLGYLAAQIQVALHGATQRAGSDDPEAPLEGQLRTTAQDSLPASITRRDWLIREKQRLQKEIEALQARMSALEAKEKRLSQELEEQEVLLRWPGCDLMALVAQMSPGQLQEVSKALGETLTSANQAPFQVEPPETLRSLRERTKSLNLAVRELTAQVCSGEKLCSSLRRRLSDLDTRLPALLEAKMLALSGSCFSTAKELTEEIWALSSEREGLEMFLGRLLALSSRNSRRLGIVKEDHLRCRQDLALQDAAHKTRMKANTVKCMEVLEGQLSSCRCPLLGRVWKADLETCQLLMQSLQLQEAGSSPHAEDEEQVHSTGEAAQTAALAVPRTPHPEEEKSPLQVLQEWDTHSALSPHCAAGPWKEDSHIVSAEVGEKCEAIGVKLLHLEDQLLGAMYSHDEALFQSLQGELQTVKETLQAMILQLQPTKEAGEASASYPTAGAQETEA
